Experimental data as given in publication doi:10.1101/2024.10.15.618377.
Where two headings read alike, the source gives them in different places. These are yes or no findings as the source states them, for the method shown. In cells and extracts the contact can be indirect. Here binding means that the protein was enriched with, or labelled near, the bait; the list need not be complete. Sequences can lack the tags named with a protein.

Chains of the proteins cited; added tags and fusions are not shown. Lines headed by an entry give the natural chain unless they say otherwise; changes in a name come on top.
UniProt Q56WH1: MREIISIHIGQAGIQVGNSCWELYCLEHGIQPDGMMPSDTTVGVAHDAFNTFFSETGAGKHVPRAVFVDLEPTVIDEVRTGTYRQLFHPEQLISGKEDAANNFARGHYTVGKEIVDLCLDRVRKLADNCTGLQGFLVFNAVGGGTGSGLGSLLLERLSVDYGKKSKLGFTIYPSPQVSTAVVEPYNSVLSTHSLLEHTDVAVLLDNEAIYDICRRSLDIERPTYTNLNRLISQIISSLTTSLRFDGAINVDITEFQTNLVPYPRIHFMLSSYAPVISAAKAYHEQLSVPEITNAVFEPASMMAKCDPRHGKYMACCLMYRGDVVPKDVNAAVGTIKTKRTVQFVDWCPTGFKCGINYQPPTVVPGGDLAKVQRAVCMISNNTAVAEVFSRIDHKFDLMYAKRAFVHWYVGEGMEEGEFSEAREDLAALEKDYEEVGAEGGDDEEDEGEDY
UniProt Q9M888: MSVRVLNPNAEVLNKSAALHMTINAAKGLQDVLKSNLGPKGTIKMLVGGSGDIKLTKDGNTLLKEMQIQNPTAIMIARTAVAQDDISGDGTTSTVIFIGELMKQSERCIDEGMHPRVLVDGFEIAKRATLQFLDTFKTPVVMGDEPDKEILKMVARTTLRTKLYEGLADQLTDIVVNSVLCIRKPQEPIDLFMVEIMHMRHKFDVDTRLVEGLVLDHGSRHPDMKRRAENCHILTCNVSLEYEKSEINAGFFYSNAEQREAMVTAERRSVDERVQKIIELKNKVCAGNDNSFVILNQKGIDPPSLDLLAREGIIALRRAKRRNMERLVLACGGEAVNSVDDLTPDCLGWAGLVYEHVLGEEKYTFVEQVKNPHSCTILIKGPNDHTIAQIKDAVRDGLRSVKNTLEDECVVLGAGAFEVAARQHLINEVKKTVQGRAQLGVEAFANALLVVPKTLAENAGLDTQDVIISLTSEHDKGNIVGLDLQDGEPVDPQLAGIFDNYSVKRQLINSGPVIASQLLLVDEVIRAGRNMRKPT
UniProt P29513: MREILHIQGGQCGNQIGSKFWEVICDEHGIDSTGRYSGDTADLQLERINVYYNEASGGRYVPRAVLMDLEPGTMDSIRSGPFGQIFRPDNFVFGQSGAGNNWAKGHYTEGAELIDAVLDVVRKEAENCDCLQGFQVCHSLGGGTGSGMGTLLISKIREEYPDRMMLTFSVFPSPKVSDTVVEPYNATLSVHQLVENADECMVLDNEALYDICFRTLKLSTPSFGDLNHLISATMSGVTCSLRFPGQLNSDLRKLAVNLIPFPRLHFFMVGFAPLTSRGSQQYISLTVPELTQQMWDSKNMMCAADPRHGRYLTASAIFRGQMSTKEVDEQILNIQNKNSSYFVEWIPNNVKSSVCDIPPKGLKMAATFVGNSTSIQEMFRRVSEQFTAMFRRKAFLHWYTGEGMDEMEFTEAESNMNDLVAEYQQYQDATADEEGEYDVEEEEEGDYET
UniProt P29511: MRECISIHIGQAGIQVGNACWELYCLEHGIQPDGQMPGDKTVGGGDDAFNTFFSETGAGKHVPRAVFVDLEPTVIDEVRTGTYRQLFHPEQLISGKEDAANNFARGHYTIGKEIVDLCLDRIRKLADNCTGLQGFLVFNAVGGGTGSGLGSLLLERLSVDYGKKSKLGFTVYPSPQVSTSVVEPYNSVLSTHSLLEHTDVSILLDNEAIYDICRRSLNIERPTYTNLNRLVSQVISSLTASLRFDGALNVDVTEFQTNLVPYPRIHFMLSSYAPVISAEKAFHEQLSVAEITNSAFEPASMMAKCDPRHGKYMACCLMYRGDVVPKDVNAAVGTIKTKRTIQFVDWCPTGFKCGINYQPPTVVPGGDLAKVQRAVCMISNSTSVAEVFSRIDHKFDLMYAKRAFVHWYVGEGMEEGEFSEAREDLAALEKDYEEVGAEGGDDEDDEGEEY

T1: HSA32-HA-TurboID (Arabidopsis thaliana) (UniProt Q8GWL1)
T1 sequence: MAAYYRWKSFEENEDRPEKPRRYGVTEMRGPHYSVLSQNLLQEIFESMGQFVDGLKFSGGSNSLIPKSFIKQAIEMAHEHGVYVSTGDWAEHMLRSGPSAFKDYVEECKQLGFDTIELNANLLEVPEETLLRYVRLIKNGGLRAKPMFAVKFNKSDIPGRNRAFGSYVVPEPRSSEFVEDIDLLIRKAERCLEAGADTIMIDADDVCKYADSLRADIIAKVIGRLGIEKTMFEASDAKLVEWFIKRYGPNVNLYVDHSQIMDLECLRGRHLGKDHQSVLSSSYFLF

B1: CCT8 (protein, UniProt Q94K05 1-549)
chain: MVGMSMQPYGIQSMLKEGYRHLSGLDEAVIKNIEACKELSTITRTSLGPNGMNKMVINHLDKLFVTNDAATIVNELEIQHPAAKLLVLAAKAQQEEIGDGANLTISFAGELLQNAEELIRMGLHPSEIISGYTKAVSKAVEILEQLVETGSETMDVRNKDEVISRMRAAVASKQFGQEEIICSLVTDACIQVCPKNPTNFNVDNVRVSKLLGGGLHNSCIVRGMVLKSDAVGSIKRMEKAKVAVFAGGVDTTATETKGTVLIHSAEQLENYAKTEEAKVEELIKAVAESGAKVIVSGGSIGEMALHFCERYKIMVLKISSKFELRRFCRTAGAVAHLKLSRPSPEDLGYVDSISVEEIGGVTVTIARNEEGGNSISTVVLRGSTDSILDDLERAVDDGVNTYKAMCRDSRIVPGAAATEIELAQRLKEYANAEIGLDKYAITKYAESFEFVPKTLADNAGLNAMEIIAALYTGHGSGNTKLGIDLEEGACKDVSETKVWDLFATKLFALKYASDAACTVLRVDQIIMAKPAGGPRRDAAQAAGAGAEED
B2: P23-1 (protein, UniProt Q8L7U4 1-241)
chain: MSRHPEVKWAETTEKIFLTVVLADTKDTKVNLDPEGVFDFSAKVGPENHVYELKLELADKVNVEESKINIGERSIFCIIEKAEPERWNKLLRVKKPPHYVKVDWDKWVDEDDEGSAGAADMDMAGMEGMGGMGGMGGMGGMGGMGGMGGMGGMEGMDFSKLMGGMGGMGGMGGLEGLGGMGGMGGMGGMGGMGGMEEFEDSDDEEETAKSGDKKDDAVKEEGLATEKAPAAEETTSVKEDK
B3: AtJ3 (protein, UniProt Q94AW8 1-420)
chain: MFGRGPSKKSDNTKFYEILGVPKSASPEDLKKAYKKAAIKNHPDKGGDPEKFKELAQAYEVLSDPEKREIYDQYGEDALKEGMGGGGGGHDPFDIFSSFFGGGPFGGNTSRQRRQRRGEDVVHPLKVSLEDVYLGTMKKLSLSRNALCSKCNGKGSKSGASLKCGGCQGSGMKVSIRQLGPGMIQQMQHACNECKGTGETINDRDRCPQCKGDKVIPEKKVLEVNVEKGMQHSQKITFEGQADEAPDTVTGDIVFVLQQKEHPKFKRKGEDLFVEHTLSLTEALCGFQFVLTHLDGRSLLIKSNPGEVVKPDSYKAISDEGMPIYQRPFMKGKLYIHFTVEFPDSLSPDQTKALEAVLPKPSTAQLSDMEIDECEETTLHDVNIEDEMRRKAQAQREAYDDDDEDDDHPGGAQRVQCAQQ
B4: BT4 (protein, UniProt Q9FJX5 1-372)
chain: MVTGCVDLHQSFKSADSSSVPIPPPLPSKSDGLKKKLGHSSVSTATRDMWDRLFNDGYKADVVIYTDNGSIIYAHANILGTASTVIKGMLKQAKRHGKWHTISIRGVPHDAVRVFIRFLYSSCYEKEEMNEFIMHLLLLSHAYVVPQLKRVCEWHLEHGLLTTENVVDVFQLALLCDFPRLSLISHRMIMKHFNELSATEAWTAMKKSHPFLEKEVRDSVIIEANTRKERMRKRNDQRIYSQLYEAMEALVHICRDGCKTIGPHDKDFKPNHATCNYEACKGLESLIRHFAGCKLRVPGGCVHCKRMWQLLELHSRVCAGSDQCRVPLCRNLKEKMEKQSKKDESRWKLLVKNVLGSKKIGGSPFFLPVTNC
B5: CCT2 (protein, UniProt Q940P8 1-527)
chain: MPIDKIFKDDASEEKGERARMASFVGAMAISDLVKSTLGPKGMDKILQSTGRGHAVTVTNDGATILKSLHIDNPAAKVLVDISKVQDDEVGDGTTSVVVLAGELLREAEKLVASKIHPMTIIAGYRMASECARNALLKRVIDNKDNAEKFRSDLLKIAMTTLCSKILSQDKEHFAEMAVDAVFRLKGSTNLEAIQIIKKPGGSLKDSFLDEGFILDKKIGIGQPKRIENANILVANTAMDTDKVKIYGARVRVDSMTKVAEIEGAEKEKMKDKVKKIIGHGINCFVNRQLIYNFPEELFADAGILAIEHADFEGIERLGLVTGGEIASTFDNPESVKLGHCKLIEEIMIGEDKLIHFSGCEMGQACSIVLRGASHHVLDEAERSLHDALCVLSQTVNDTRVLLGGGWPEMVMAKEVDELARKTAGKKSHAIEAFSRALVAIPTTIADNAGLDSAELVAQLRAEHHTEGCNAGIDVITGAVGDMEERGIYEAFKVKQAVLLSATEASEMILRVDEIITCAPRRREDRM

Legend:
[1] = target: T1, HSA32-HA-TurboID (Arabidopsis thaliana); test: proximity labelling
[2] = target: T1, HSA32-HA-TurboID (Arabidopsis thaliana); test: proximity labelling; remark: listed apart in the source

| binding [1] | binding [2] | Molecule |
| --- | --- | --- |
| binds |  | IPA1 |
| binds |  | LEA25 (from UniProt Q9SIN3) |
| binds |  | TUBA3 (from UniProt Q56WH1 1-450) |
| binds |  | CCT6A/B (from UniProt Q9M888) |
| binds |  | TUBB5 (from UniProt P29513 1-449) |
| binds |  | TUBA6 (from UniProt P29511 1-450) |
| binds | binds | B1 |
| binds | binds | B2 |
| binds | binds | B3 |
| binds |  | B4 |
| binds | binds | B5 |
